# Data reported in patent publication US11845992B2, “Compositions and methods for predicting response and resistance to CDK4/6 inhibition” (DANA-FARBER CANCER INSTITUTE, INC., priority 2017, dated 2023).
# At least one structure is not confirmed: it was looked up by name or label, or the drawing left a doubt.
# Assays:
# T47D cells = assay: Growth inhibition assay, 5 days, normalized to DMSO; assay type: cell-based
# Experimental: (§1) Subsequently, cell growth was quantified and normalized to DMSO treated control.
# Subsequently, cell growth was quantified and normalized to DMSO treated control. BLISS Synergy/antagonism score was modelled using Combenefit software. FIG. 12C is a graph, wherein T47D parental and resistant cells were treated with escalating dose of galunisertib for 5 days. Subsequently, cell growth was quantified and normalized to DMSO treated control.
# MCF7 cells = assay: as above; assay type: cell-based
# Source text: as §1
compound,measurement,setting,value
CCN1CCN(Cc2ccc(Nc3ncc(F)c(-c4cc(F)c5nc(C)n(C(C)C)c5c4)n3)nc2)CC1 [abemaciclib],change of GI50 by CDK6 overexpression,T47D cells; CDK6 overexpressing vs parental T47D,significantly increased
same,cross-resistance of palbociclib resistant cells,T47D cells; palbociclib resistant (100 nM) T47D vs parental,moderately more resistant
same,change of GI50 by CDK6 overexpression,MCF7 cells; CDK6 overexpressing vs parental MCF7 (printed MCG-7),significantly increased
same,cross-resistance of palbociclib resistant cells,MCF7 cells; palbociclib resistant (100 nM) MCF7 vs parental,moderately more resistant
